Results are given in words; binding and its absence hold for the method and conditions named. Binding seen in cells or lysates may run through a third protein. Binding calls can cover weak binding; strength is not graded here.
Molecular target: T1, IκB kinase complex-associated protein (IKAP) (human (endogenous in HEK 293nt)) (UniProt O95163)
T1 sequence: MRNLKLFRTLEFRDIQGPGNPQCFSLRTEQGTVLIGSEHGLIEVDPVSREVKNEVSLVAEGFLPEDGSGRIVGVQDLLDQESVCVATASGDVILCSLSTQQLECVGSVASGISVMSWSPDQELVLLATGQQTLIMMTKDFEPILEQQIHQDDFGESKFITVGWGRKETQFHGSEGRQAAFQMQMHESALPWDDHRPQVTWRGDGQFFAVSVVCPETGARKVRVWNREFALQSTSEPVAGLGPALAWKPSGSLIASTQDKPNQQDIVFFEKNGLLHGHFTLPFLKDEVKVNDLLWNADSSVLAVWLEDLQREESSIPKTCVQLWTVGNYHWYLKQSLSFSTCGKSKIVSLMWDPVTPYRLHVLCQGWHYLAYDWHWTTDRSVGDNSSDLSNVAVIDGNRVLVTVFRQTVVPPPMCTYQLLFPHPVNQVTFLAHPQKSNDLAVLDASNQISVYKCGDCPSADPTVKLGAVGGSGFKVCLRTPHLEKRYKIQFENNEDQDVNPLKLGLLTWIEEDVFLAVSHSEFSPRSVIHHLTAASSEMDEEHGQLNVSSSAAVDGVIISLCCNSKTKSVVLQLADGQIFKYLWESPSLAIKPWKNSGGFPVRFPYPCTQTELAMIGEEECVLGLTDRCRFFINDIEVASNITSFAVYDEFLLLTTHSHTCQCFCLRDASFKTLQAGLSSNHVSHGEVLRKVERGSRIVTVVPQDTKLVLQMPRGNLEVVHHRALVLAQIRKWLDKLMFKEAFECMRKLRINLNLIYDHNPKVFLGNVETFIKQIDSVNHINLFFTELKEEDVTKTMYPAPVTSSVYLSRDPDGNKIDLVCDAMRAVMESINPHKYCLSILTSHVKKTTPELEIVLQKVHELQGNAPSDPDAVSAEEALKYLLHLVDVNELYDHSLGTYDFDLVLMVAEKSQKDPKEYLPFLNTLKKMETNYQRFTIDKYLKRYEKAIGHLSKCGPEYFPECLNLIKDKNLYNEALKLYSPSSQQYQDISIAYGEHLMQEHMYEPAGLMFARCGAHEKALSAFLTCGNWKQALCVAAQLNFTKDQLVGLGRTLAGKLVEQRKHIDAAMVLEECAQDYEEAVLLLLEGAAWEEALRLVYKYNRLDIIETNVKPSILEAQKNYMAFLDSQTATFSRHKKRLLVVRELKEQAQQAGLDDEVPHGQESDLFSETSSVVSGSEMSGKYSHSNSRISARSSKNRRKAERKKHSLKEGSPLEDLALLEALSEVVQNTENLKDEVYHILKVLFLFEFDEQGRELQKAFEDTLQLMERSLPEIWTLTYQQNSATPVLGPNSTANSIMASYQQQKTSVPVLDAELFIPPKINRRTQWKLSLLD
Assay: co-IP; endogenous IKAP precipitated with anti-IKAP antibody on protein A Dynabeads from HEK 293nt lysate; cells crosslinked with 0.1% formaldehyde, sonicated; IP buffer 50 mM HEPES pH 7.6, 500 mM LiCl, 1 mM EDTA, 0.7% DOC, 1% NP-40, 0.1% SDS; 12 h at 4°C; western blot

Row | binding | Substance
1 | no binding | ERK (human (endogenous in HEK 293nt))
2 | binds | c-Jun N-terminal kinase (JNK) (human (endogenous in HEK 293nt))
3 | binds | α-tubulin (human (endogenous in HEK 293nt))
